The other results are listed elsewhere or left out.
Compound: NC(=O)Nc1cc(-c2cccc(F)c2)sc1C(=O)N[C@H]1CCCNC1
Test: log2 fold change, soluble protein after heating vs DMSO (PISA); higher = thermal stabilisation; K562 cells, 10 uM, 30 min; active = over 0.2 and 3.5 SD of the protein, either way, in both replicates (recomputed)
In short: (§1)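 K562 cells at 2×10^6 cells/mL were exposed to 10 μM compound for 30 min, then aliquots were heated for 3 min across 48°C-58°C, pooled, and extracted in PBS containing 0.5% NP-40 at 4°C. The supernatant after 21,000xg for 90 min was taken as soluble protein and measured by TMTpro 16plex LC-MS/MS with channel sums equalised. Thermal stability is reported relative to control samples, with values from duplicates. Fold changes are given on a log2 scale.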

Protein sequences, listed by entry. Tags and fused reporters are not part of them. Lines headed by an entry give the natural chain unless they say otherwise; changes in a name come on top.
UniProt O00483, whole entry, looked up: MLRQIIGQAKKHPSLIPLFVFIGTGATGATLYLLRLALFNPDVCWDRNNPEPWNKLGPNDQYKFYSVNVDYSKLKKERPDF
UniProt Q96RE7: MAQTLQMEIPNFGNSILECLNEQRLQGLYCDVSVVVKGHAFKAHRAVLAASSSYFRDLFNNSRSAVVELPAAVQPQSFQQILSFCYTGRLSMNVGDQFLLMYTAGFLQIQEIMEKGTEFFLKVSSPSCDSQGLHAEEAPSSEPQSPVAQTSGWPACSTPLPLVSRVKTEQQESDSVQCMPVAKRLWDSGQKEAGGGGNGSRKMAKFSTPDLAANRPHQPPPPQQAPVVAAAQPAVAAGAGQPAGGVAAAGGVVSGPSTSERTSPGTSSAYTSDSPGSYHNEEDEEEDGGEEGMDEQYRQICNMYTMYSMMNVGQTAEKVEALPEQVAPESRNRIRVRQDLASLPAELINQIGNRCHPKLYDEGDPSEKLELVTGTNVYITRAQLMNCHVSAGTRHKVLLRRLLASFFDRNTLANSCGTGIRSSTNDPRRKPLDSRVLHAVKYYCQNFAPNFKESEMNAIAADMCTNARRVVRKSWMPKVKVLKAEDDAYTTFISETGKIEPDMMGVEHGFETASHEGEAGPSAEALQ
UniProt O95167, whole entry, looked up: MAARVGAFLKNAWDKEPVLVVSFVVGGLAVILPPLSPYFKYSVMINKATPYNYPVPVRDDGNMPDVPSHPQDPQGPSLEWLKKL
UniProt Q8NI08: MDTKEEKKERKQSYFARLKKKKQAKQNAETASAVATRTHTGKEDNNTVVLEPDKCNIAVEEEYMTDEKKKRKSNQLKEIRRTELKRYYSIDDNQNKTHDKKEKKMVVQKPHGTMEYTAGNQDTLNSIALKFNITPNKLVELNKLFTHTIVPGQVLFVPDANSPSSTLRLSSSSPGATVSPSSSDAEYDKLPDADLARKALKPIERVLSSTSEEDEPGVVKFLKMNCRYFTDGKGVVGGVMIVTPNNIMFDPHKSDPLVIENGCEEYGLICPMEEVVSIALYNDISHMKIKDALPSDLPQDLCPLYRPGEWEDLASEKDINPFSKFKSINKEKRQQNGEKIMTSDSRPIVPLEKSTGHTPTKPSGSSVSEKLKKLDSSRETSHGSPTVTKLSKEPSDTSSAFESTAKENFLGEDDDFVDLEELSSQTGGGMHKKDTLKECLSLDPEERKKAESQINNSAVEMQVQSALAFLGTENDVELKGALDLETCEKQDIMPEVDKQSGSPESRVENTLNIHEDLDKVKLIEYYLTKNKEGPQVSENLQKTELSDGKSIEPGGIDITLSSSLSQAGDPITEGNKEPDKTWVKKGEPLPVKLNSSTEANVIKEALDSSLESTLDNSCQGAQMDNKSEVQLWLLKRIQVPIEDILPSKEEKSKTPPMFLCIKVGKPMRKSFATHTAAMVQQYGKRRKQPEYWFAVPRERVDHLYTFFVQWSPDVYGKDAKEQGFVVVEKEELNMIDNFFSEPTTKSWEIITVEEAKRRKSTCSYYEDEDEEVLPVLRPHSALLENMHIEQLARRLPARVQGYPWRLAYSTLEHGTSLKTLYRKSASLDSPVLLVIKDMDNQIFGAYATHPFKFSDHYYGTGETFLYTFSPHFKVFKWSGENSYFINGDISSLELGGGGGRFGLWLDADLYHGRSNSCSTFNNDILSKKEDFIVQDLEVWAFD
UniProt O95299, whole entry, looked up: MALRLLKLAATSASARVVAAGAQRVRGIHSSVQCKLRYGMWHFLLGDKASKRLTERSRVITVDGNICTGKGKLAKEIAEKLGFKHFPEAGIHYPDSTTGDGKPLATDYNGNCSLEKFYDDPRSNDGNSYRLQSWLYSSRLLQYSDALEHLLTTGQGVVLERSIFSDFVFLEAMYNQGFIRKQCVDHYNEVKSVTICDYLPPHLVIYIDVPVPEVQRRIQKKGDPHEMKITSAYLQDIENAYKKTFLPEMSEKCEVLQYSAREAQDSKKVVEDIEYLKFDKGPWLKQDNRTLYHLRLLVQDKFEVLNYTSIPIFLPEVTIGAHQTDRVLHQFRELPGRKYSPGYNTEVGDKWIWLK
UniProt E9PAV3, whole entry, looked up: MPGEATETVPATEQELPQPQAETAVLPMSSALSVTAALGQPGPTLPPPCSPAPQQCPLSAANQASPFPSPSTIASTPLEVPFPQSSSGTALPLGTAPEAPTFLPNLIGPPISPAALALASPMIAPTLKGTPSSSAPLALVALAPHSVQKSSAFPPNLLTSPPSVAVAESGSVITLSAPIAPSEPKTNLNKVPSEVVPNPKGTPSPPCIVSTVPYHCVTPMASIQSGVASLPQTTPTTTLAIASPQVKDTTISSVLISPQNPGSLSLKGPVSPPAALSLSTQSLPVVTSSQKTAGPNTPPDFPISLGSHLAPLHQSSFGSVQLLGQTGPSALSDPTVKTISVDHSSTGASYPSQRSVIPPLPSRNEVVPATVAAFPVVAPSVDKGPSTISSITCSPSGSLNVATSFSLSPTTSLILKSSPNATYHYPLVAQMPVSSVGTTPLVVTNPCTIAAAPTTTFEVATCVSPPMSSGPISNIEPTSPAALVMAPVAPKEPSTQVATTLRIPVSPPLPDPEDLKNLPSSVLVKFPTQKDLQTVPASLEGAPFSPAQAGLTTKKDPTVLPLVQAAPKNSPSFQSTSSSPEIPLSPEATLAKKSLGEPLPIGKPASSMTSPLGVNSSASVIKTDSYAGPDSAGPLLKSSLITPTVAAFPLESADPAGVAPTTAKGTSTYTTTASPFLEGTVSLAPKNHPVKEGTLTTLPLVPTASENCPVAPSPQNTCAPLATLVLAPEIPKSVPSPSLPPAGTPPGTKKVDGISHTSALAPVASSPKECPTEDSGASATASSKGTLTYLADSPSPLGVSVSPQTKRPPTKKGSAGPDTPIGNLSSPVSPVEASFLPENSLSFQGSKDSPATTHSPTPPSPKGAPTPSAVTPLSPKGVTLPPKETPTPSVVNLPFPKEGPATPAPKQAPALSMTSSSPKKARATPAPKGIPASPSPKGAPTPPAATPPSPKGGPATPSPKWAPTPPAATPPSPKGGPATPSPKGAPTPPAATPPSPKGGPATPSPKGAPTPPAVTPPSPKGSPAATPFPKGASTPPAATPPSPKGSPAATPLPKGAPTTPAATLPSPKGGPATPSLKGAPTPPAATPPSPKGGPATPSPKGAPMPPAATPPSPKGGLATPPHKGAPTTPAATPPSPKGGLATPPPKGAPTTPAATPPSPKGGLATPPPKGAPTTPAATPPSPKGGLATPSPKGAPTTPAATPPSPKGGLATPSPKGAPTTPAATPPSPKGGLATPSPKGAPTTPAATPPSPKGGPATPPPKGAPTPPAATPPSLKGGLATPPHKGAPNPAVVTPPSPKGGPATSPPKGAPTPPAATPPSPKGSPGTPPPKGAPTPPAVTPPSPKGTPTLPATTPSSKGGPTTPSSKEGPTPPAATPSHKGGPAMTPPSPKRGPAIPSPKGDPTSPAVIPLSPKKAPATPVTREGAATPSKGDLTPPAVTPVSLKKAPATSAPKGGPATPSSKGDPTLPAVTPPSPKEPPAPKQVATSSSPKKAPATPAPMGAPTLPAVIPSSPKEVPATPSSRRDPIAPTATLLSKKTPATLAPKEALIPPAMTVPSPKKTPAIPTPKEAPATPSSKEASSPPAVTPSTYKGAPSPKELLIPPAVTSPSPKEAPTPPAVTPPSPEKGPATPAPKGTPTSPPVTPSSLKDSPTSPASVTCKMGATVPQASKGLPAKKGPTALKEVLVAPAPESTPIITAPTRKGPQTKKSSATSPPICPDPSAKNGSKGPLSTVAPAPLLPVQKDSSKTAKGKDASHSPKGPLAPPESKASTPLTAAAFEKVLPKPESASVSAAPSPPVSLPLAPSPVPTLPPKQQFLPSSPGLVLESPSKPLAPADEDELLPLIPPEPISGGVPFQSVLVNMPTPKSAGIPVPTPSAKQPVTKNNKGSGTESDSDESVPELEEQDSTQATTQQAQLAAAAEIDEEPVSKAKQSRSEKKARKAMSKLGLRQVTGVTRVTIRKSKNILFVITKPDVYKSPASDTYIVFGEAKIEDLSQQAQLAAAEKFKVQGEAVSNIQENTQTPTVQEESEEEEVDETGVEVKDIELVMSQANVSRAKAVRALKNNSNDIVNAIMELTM
UniProt Q15843, whole entry, looked up: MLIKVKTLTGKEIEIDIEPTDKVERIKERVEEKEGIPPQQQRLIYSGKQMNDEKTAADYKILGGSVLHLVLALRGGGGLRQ
UniProt O43678, whole entry, looked up: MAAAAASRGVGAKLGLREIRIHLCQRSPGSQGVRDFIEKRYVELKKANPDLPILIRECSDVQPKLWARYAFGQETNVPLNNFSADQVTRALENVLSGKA
UniProt Q7L592: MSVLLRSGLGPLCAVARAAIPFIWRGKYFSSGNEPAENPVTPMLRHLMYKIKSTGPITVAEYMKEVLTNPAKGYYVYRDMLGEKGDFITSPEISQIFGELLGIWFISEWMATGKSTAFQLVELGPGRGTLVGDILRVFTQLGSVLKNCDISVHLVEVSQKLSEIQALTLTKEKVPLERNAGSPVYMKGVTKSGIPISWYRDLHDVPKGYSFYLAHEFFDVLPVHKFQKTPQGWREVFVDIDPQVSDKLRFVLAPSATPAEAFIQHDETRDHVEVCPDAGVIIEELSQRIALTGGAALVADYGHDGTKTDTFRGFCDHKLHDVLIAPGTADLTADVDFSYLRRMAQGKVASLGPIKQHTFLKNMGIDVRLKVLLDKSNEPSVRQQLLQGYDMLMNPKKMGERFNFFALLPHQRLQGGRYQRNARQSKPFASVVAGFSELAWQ
UniProt O43674, whole entry, looked up: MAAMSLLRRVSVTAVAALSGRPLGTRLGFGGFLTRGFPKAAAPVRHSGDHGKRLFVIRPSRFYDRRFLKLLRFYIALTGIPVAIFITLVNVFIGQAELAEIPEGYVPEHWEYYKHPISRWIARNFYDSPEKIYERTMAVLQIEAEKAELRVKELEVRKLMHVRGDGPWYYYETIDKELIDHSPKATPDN
UniProt O95544: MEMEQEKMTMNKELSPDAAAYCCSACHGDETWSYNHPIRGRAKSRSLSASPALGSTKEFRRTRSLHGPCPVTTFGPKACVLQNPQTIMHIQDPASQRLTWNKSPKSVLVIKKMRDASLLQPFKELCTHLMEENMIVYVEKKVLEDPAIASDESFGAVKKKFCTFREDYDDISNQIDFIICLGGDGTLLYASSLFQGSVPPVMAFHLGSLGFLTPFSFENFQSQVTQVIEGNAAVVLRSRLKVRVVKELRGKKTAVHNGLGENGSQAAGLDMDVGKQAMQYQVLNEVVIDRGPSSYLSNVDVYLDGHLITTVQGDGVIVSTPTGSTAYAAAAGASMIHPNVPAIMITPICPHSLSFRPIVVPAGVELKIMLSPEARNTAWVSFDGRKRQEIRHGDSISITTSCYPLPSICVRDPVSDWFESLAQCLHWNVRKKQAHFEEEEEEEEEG
UniProt O75489, whole entry, looked up: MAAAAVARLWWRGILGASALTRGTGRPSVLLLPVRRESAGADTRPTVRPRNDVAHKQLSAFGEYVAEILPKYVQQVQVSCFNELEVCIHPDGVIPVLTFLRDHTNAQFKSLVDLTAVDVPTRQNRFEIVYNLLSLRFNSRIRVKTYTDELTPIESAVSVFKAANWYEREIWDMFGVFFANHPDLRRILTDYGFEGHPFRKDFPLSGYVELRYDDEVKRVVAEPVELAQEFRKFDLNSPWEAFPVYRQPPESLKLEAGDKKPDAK
UniProt Q96NT1: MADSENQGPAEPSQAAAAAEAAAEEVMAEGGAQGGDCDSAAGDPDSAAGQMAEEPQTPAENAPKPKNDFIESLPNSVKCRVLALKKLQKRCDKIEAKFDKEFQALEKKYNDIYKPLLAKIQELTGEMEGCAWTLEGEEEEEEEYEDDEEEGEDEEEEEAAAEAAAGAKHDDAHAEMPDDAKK
UniProt Q6IA69: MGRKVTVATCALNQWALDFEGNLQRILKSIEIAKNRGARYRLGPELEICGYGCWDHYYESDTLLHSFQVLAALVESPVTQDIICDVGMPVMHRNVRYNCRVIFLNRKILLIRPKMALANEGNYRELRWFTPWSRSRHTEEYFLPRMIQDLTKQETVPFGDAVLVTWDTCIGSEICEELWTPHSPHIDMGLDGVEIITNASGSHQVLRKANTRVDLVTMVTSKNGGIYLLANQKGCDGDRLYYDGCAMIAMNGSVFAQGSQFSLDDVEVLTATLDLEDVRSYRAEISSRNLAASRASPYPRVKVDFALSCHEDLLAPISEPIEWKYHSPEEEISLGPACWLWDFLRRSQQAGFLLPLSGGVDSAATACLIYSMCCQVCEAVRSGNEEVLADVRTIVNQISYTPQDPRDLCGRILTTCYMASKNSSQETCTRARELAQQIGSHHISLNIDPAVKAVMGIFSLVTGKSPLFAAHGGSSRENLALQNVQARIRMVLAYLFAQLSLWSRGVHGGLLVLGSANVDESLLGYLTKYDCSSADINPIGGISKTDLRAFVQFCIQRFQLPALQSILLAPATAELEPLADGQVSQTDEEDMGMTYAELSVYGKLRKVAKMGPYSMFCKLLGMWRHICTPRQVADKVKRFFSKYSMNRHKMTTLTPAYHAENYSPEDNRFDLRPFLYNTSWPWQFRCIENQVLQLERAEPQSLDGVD
UniProt O95182, whole entry, looked up: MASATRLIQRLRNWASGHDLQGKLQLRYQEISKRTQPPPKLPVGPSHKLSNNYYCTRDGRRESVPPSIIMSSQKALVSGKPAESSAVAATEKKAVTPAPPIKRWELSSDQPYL

log2 fold change, inactive:
NDUFA4 (UniProt O00483) 0.026
NACC1 (UniProt Q96RE7) 0.099
NEFH (UniProt P12036) -0.084
NCSTN (UniProt Q92542) -0.076
NDUFA3 (UniProt O95167) 0.032
NCOA7 (UniProt Q8NI08) -0.061
NDUFA10 (UniProt O95299) -0.059
NACA (UniProt E9PAV3) 0.037
NDUFV3 isoform 2 (UniProt P56181) 0.01

Compound: NC(=O)c1cnc(N[C@@H]2CCCC[C@@H]2N)nc1Nc1cccc(-n2nccn2)c1
Test: as above
In short: as §1

log2 fold change, inactive:
NDUFA6 (UniProt P56556) 0.028
NARS2 (UniProt Q96I59) 0.057
NEDD8 (UniProt Q15843) -0.071
NDUFA2 (UniProt O43678) 0.032
NDUFAF7 (UniProt Q7L592) -0.134
NDUFB5 (UniProt O43674) 0.005
NADK (UniProt O95544) -0.03
NANP (UniProt Q8TBE9) -0.138
NDUFS3 (UniProt O75489) 0
NAP1L4 isoform 2 (UniProt Q99733) -0.003
NAP1L5 (UniProt Q96NT1) 0.056
NDRG3 (UniProt Q9UGV2) -0.11
NADSYN1 (UniProt Q6IA69) 0.043
NDUFA7 (UniProt O95182) 0.005
